From PMC9806626

By UniProt entry, the sequences of proteins in these tests, tags left out. Where a name states a change or a piece, a line headed by the entry shows the natural chain unless it says otherwise.
UniProt Q9SSS9: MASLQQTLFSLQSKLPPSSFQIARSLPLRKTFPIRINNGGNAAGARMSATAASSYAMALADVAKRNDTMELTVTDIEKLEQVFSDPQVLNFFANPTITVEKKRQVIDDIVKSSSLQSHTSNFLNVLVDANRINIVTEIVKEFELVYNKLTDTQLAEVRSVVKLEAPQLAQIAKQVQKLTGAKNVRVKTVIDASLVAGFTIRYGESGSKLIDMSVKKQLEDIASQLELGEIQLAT

Tests used:
[1] = target: T1, BD-AtCGL160N (AtCGL160 29–206 aa fused to the GAL4 DNA-binding domain) (Arabidopsis thaliana) (UniProt O82279); experiment: two-hybrid; Matchmaker GAL4 system (Clontech), bait pGBKT7, prey pGADT7, yeast AH109; growth on SD -Leu/-Trp/-His/-Ade in serial dilutions
T1 sequence: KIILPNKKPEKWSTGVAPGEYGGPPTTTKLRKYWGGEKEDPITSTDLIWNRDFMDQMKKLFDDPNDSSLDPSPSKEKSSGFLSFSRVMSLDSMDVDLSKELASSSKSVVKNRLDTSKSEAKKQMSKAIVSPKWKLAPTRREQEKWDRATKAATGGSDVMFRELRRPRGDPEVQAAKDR

[2] = target: CF1-CFO holo-complex (chloroplast ATP synthase), endogenous (Arabidopsis thaliana (endogenous in Col-0)); experiment: cross-linking; WT (Col-0) thylakoid membranes treated with 2.5 mM DSP for 20 min on ice, quenched with 60 mM Tris/HCl pH 7.5; BN/SDS-PAGE (2D) and immunodetection of AtCGL160 and the γ subunit; compared with untreated thylakoids

binding [1]: no binding
Molecule: AD-AtCGLD11 (Arabidopsis thaliana)

binding [1]: no binding
Molecule: AD-CFO-b′ (soluble domain, 109–219 aa) (domain or fragment)

binding [1]: no binding
Molecule: AD-CF1-δ (from UniProt Q9SSS9)

binding [1]: no binding
Molecule: AD-CF1-γ

binding [2]: binds
B1: AtCGL160, endogenous in wild-type (Col-0) thylakoids (protein, UniProt O82279 47-350)
chain: GEYGGPPTTTKLRKYWGGEKEDPITSTDLIWNRDFMDQMKKLFDDPNDSSLDPSPSKEKSSGFLSFSRVMSLDSMDVDLSKELASSSKSVVKNRLDTSKSEAKKQMSKAIVSPKWKLAPTRREQEKWDRATKAATGGSDVMFRELRRPRGDPEVQAAKDREQYFKLKNKIQVLTLGIGGVGLVSAYISYTPEIALSFGAGLLGSLAYMRMLGNSVDAMADGARGVAKGAANQPRLLVPVVLVMIFNRWNAILVPEYGFMHLELIPMLVGFFTYKIATFFQAIEEAISITTQKPESISPDTQASD

Results are given in words; binding and its absence hold for the method and conditions named. For some assays here: In cells and extracts the contact can be indirect. For some assays here: Binding can be weak; no strength is given. For some assays here: Sequences can lack the tags named with a protein. Each block holds one molecule with its values, some of them ahead of it.
